The other results are listed elsewhere or left out. Residues, ends and D or L forms follow the SMILES beside them. *: point of attachment. Cbz = O=C(OCc1ccccc1)*
What was measured:
Experiment in all cases: log2 fold change, soluble protein after heating vs DMSO (PISA); higher = thermal stabilisation; K562 cells, 10 uM, 30 min; active = over 0.2 and 3.5 SD of the protein, either way, in both replicates (recomputed)
[1] = compound: C1COCCN1CCN2C3=CC=CC=C3N=C2NC(=O)C4=CC(=CC=C4)[N+](=O)[O-] [IRAK-1-4 Inhibitor I]
Summary of the method: (§1)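 K562 cells (2×10^6 cells/mL) were treated with 10 μM compound for 30 min, and aliquots were heated for 3 min over 48°C-58°C. Pooled aliquots were extracted in PBS with 0.5% NP-40 at 4°C, and the supernatant after 21,000xg for 90 min was measured by TMTpro 16plex LC-MS/MS with channel sums equalised. Reported thermal stability, relative to control samples and from duplicates, is a log2 fold change.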

The chains behind the UniProt entries cited, without tags or fusion partners. Where a name states a change or a piece, a line headed by the entry shows the natural chain unless it says otherwise.
UniProt A0FGR8: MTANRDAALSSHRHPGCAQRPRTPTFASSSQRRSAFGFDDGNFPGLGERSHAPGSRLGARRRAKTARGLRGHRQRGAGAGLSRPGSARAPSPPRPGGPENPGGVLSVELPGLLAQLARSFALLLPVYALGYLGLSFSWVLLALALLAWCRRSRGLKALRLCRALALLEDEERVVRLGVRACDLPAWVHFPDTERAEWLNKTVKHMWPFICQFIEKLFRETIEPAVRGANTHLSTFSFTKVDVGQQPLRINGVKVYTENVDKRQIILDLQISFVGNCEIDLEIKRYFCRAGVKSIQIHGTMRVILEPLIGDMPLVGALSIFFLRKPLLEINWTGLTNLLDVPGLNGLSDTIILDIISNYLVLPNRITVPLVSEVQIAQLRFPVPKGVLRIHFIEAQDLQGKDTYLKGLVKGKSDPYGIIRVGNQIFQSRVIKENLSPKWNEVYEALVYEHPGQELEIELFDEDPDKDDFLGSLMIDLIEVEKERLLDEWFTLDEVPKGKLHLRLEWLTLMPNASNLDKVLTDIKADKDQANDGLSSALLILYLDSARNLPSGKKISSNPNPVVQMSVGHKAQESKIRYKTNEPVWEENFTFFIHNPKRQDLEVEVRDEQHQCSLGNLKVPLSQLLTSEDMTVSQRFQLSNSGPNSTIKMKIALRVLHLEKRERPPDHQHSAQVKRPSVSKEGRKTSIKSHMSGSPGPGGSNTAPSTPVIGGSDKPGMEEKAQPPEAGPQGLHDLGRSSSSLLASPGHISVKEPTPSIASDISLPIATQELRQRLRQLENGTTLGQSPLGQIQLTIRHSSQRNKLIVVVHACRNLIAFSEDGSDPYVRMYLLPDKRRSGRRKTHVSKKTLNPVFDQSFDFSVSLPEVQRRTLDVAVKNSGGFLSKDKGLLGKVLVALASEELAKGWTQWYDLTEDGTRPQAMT
UniProt Q8IUD2: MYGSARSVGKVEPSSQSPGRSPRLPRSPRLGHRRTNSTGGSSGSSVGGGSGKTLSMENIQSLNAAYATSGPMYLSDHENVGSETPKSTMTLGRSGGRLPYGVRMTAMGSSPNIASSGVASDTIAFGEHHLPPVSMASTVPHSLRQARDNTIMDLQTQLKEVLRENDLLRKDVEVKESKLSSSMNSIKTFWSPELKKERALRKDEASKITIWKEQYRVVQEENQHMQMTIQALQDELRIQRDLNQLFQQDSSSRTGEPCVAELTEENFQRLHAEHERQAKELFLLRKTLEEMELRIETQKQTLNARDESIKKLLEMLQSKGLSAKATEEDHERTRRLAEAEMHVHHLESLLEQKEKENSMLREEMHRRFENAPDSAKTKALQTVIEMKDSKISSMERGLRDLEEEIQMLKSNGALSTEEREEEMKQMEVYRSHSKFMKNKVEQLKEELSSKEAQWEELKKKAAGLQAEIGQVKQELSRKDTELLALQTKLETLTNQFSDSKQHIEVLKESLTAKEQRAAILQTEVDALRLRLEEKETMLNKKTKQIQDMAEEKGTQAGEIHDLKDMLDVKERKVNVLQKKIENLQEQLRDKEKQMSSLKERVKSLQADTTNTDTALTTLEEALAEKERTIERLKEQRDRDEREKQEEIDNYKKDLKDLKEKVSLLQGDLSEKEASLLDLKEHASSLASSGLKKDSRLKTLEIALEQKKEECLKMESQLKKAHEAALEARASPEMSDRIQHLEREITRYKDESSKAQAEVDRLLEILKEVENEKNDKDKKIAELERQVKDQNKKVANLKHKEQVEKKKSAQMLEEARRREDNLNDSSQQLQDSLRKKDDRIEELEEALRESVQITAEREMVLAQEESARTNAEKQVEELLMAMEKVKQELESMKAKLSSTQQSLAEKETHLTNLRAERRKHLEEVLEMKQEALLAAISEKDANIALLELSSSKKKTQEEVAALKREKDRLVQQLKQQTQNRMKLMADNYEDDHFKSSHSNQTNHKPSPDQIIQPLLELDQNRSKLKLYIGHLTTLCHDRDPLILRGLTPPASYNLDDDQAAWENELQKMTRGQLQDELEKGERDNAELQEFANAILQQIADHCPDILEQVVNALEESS
UniProt Q14674: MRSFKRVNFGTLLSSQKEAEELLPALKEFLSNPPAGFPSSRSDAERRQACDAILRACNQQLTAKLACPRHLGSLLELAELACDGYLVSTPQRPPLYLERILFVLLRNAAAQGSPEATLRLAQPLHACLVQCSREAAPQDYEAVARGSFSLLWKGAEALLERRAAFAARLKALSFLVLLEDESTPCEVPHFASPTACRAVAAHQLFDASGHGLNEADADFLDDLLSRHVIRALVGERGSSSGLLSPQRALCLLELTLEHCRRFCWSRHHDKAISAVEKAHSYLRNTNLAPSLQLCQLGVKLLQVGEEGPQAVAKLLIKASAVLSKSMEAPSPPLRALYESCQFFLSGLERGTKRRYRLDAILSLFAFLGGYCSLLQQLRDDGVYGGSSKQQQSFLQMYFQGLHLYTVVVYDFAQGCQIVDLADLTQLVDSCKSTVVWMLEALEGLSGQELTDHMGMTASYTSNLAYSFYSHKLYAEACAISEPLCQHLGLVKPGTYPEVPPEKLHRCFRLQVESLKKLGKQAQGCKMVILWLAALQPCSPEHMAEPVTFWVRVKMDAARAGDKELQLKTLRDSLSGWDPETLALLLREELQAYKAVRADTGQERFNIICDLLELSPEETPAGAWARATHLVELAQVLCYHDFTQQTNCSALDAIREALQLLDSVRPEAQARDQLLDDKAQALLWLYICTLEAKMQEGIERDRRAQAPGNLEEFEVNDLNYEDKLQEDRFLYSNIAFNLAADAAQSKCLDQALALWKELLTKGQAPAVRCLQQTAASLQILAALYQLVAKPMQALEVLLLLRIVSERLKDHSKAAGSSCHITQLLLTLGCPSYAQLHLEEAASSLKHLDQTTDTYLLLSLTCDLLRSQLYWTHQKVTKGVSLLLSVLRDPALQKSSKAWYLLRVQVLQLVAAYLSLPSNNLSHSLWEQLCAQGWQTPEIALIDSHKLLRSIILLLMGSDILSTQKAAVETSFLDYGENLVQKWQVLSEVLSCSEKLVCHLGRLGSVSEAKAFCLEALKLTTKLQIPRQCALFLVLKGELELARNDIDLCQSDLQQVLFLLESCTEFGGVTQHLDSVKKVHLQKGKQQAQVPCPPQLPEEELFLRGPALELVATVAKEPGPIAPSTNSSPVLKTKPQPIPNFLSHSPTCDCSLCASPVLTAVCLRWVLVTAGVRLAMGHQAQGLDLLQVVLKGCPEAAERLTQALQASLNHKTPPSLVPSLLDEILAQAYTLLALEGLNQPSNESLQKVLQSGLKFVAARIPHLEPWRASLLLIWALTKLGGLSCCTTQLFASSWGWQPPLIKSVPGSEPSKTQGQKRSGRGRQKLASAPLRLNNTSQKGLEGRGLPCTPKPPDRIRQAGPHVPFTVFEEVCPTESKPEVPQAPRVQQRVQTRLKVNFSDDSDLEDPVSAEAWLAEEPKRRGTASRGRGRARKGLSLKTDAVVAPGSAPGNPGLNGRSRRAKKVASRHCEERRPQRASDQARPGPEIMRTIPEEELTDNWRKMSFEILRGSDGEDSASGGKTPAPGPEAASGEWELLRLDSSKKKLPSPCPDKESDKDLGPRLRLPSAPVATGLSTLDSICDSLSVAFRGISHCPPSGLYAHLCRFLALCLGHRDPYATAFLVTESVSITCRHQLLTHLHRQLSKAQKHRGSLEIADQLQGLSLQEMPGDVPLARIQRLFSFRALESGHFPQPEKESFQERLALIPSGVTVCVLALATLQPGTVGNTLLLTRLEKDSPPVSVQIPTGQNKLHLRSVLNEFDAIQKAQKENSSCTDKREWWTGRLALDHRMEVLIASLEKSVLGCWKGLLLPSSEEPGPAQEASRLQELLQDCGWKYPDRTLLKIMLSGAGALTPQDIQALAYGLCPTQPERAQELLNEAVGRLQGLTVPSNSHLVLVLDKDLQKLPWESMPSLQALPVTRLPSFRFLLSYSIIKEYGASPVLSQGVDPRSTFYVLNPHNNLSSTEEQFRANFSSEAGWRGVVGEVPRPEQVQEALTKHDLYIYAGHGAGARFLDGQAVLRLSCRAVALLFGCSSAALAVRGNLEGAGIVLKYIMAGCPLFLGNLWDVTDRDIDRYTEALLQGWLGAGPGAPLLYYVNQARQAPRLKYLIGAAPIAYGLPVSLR
UniProt Q9GZU8: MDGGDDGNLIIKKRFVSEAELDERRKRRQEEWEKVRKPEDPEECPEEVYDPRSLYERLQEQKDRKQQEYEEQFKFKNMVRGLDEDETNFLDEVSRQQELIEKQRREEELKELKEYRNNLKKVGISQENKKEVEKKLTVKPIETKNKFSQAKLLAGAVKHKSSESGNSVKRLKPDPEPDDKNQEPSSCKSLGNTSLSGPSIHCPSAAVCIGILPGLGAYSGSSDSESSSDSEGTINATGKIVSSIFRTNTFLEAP
UniProt Q9Y624, whole entry, looked up, stated change not applied: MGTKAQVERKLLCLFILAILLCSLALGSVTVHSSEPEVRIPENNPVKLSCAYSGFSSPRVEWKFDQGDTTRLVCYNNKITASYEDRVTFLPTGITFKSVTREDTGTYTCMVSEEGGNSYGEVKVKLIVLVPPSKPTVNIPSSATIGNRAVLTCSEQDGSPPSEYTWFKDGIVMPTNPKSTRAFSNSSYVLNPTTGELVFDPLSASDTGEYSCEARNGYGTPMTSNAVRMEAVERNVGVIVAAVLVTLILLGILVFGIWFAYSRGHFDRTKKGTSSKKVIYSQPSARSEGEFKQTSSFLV
UniProt Q9BS26: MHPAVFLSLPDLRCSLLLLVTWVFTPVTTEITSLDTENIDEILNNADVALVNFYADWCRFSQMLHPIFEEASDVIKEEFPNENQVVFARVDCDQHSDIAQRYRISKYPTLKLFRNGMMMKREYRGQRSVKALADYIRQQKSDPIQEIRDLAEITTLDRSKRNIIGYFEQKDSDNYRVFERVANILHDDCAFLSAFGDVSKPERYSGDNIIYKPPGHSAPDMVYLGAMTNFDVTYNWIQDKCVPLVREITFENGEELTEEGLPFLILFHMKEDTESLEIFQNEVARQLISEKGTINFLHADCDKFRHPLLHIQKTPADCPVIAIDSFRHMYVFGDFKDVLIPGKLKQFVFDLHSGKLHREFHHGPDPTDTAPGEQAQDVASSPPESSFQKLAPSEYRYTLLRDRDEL
UniProt Q96B26, whole entry, looked up: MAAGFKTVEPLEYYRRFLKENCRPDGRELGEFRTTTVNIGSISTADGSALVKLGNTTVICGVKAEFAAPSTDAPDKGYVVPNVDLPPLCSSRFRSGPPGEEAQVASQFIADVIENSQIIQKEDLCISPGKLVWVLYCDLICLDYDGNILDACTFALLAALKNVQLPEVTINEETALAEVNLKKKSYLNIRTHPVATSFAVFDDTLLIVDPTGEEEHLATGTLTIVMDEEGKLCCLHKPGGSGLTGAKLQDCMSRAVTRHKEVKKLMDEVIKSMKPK
UniProt P84090, whole entry, looked up: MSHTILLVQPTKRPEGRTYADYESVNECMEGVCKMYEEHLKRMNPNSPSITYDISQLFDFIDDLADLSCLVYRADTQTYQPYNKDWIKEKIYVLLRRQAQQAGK
UniProt O95571: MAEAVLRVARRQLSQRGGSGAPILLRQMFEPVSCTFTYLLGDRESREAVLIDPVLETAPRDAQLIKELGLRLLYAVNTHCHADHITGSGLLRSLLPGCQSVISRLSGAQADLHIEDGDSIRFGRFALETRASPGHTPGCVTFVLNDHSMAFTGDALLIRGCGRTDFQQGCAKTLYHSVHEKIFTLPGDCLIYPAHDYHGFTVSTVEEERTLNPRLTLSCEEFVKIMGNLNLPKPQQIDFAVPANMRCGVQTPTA
UniProt Q13868, whole entry, looked up: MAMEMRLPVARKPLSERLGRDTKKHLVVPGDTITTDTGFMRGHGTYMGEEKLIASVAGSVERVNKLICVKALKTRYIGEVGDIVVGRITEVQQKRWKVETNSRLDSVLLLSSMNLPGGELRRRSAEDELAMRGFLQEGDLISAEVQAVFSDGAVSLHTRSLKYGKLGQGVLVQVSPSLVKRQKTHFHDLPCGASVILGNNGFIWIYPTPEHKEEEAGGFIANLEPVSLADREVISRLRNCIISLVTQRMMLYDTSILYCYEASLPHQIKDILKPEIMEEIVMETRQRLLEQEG
UniProt Q96A26: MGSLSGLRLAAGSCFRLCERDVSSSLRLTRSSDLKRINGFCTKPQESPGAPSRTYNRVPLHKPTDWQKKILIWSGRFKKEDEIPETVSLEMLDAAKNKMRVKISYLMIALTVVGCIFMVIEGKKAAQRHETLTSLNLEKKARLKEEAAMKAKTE
UniProt O43414: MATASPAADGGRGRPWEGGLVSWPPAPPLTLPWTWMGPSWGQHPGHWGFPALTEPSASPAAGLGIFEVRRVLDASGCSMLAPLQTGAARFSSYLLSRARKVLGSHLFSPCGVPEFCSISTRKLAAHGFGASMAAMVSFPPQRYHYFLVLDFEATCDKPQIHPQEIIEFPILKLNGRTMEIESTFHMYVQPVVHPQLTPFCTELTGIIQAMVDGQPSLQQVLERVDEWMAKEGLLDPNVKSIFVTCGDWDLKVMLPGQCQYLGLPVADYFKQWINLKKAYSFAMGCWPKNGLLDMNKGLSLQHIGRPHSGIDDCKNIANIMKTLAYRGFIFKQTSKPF

[2] = compound: C=CC(=O)N1CCC[C@@H](n2nc(-c3ccc(Oc4ccccc4)cc3)c3c(N)ncnc32)C1 [ibrutinib]
Summary of the method: as §1

[3] = compound: CC(=O)c1cnc2ccc(-c3cc(Cl)c(O)c(Cl)c3)nc2c1N[C@H]1CC[C@H](CN(C)C)CC1
Summary of the method: as §1

[4] = compound: CC(C)(C)Cn1c(N)nc2ccc(-c3[nH]c(C(C)(C)C)nc3-c3ccc(F)cc3)nc21 [ralimetinib]
Summary of the method: as §1

[5] = compound: CC(C)(O)CC(=O)NCCn1ccc2ncnc(Nc3ccc(Oc4cccc(C(F)(F)F)c4)c(Cl)c3)c21
Summary of the method: as §1

[6] = compound: CC(C)C1=C2N=C(C=C(N2N=C1)NCC3=CC=CC=C3)NCCCCCCN
Summary of the method: as §1

[7] = compound: CC(C)C[C@@H](C=O)NC(=O)[C@H](CC(C)C)NC(=O)[C@H](CC(C)C)NC(=O)OCc1ccccc1
Summary of the method: as §1

[8] = compound: CC(C)N(C[C@H]1O[C@@H](n2cnc3c(N)ncnc32)[C@H](O)[C@@H]1O)[C@H]1C[C@@H](CCc2nc3cc(C(C)(C)C)ccc3[nH]2)C1 [pinometostat]
Summary of the method: as §1

[9] = compound: CC1=C(C(CC(=O)N1)C2=CC=C(C=C2)C(F)(F)F)C(=O)NC3=C(C=C4C(=C3)C=NN4)F
Summary of the method: as §1

[10] = compound: CC1=C(C2=C(C=C1)C(=O)C3=CC=CC=C3N2CCCN)C
Summary of the method: as §1

Measured: log2 fold change

ESYT2 isoform 2 (UniProt A0FGR8)
inactive: [1] 0.02 | [2] -0.003 | [3] -0.111 | [4] 0 | [5] -0.009 | [6] -0.11 | [7] 0 | [8] -0.04 | [9] -0.04 | [10] 0.086

FABP5 (UniProt Q01469)
inactive: [1] 0.03 | [2] -0.007 | [3] 0.045 | [4] 0.035 | [5] 0.012 | [6] 0.029 | [7] -0.08 | [8] -0.044 | [9] 0.037 | [10] 0.001

ERC1 (UniProt Q8IUD2)
inactive: [1] 0.032 | [2] 0.117 | [3] -0.361 | [4] 0.193 | [5] -0.116 | [6] -0.272 | [7] 0.03 | [8] 0.109 | [9] 0.024 | [10] 0.151

ESPL1 (UniProt Q14674)
inactive: [1] 0.061 | [2] -0.055 | [3] -0.202 | [4] -0.076 | [5] 0.114 | [6] 0.144 | [7] -0.007 | [8] 0.04 | [9] 0.039

FAM192A (UniProt Q9GZU8)
inactive: [1] 0.03 | [2] -0.016 | [3] 0.037 | [4] -0.069 | [5] 0.011 | [6] 0.025 | [7] 0.007 | [8] -0.027 | [9] 0.027 | [10] -0.012

F11R (UniProt Q9Y624)
inactive: [1] 0.048 | [2] 0.014 | [3] -0.036 | [4] -0.025 | [5] -0.035 | [6] 0.124 | [7] 0.013 | [8] -0.053 | [9] -0.029 | [10] -0.03

ETF1 (UniProt P62495)
inactive: [1] 0.039 | [2] -0.017 | [3] -0.034 | [4] -0.043 | [5] -0.023 | [6] -0.055 | [7] -0.003 | [8] 0.014 | [9] -0.001 | [10] 0.015

EPN2 (UniProt O95208)
inactive: [1] 0.066 | [2] 0.063 | [3] -0.05 | [4] 0.097 | [5] 0.003 | [6] -0.042 | [7] -0.022 | [8] -0.029 | [9] -0.001 | [10] -0.052

2 entries picked at random from those above, as already listed:
ETF1 (UniProt P62495)
inactive: [1] 0.039 | [2] -0.017 | [3] -0.034 | [4] -0.043 | [5] -0.023 | [6] -0.055 | [7] -0.003 | [8] 0.014 | [9] -0.001 | [10] 0.015

ESPL1 (UniProt Q14674)
inactive: [1] 0.061 | [2] -0.055 | [3] -0.202 | [4] -0.076 | [5] 0.114 | [6] 0.144 | [7] -0.007 | [8] 0.04 | [9] 0.039

Additional entries follow.

ERP44 (UniProt Q9BS26)
inactive: [1] 0.025 | [2] -0.007 | [3] 0 | [4] 0 | [5] -0.002 | [6] -0.005 | [7] 0.018 | [8] -0.01 | [9] -0.009 | [10] -0.023

EXOSC1 (UniProt Q9Y3B2)
inactive: [1] -0.025 | [2] -0.056 | [3] -0.064 | [4] 0.05 | [5] 0.045 | [6] 0.024 | [7] 0.1 | [8] 0.098 | [9] -0.081 | [10] 0.093

EXOSC8 (UniProt Q96B26)
inactive: [1] 0.014 | [2] 0.027 | [3] 0.003 | [4] -0.063 | [5] 0.009 | [6] 0.062 | [7] 0.04 | [8] 0.005 | [9] 0.028 | [10] -0.012

ERGIC3 isoform 3 (UniProt Q9Y282)
inactive: [1] 0.018 | [2] 0.024 | [3] 0.016 | [4] -0.084 | [5] -0.091 | [6] -0.14 | [7] 0.019 | [8] -0.027 | [9] 0.029 | [10] -0.006

ERCC3 (UniProt P19447)
inactive: [1] -0.101 | [2] 0.074 | [3] -0.102 | [4] 0.09 | [5] 0.016 | [6] -0.149 | [7] 0.026 | [8] -0.018 | [9] -0.116 | [10] 0.114

ERH (UniProt P84090)
inactive: [1] -0.08 | [2] 0.231 | [3] -0.203 | [4] -0.151 | [5] -0.138 | [6] -0.028 | [7] 0.02 | [8] -0.035 | [9] 0.006 | [10] 0.154

EPCAM (UniProt P16422)
inactive: [1] 0.056 | [2] 0.024 | [3] 0.008 | [4] 0.011 | [5] 0.008 | [6] 0.079 | [7] 0.078 | [8] -0.012 | [9] -0.033 | [10] 0.002

ETNPPL (UniProt Q8TBG4)
inactive: [1] -0.225 | [2] 0.007 | [3] 0.077 | [4] -0.068 | [5] 0.12 | [6] 0.151 | [7] 0.03 | [8] -0.012 | [9] -0.046 | [10] -0.042

EPB41L2 (UniProt O43491)
inactive: [1] 0.022 | [2] 0.011 | [3] -0.15 | [4] 0.001 | [5] -0.024 | [6] 0.052 | [7] -0.001 | [8] -0.005 | [9] -0.03 | [10] 0.086

FADD (UniProt Q13158)
inactive: [1] -0.001 | [2] -0.041 | [3] -0.084 | [4] 0.021 | [5] 0.085 | [6] 0.028 | [7] 0.045 | [8] 0.14 | [9] -0.073 | [10] 0.069

ETHE1 (UniProt O95571)
inactive: [1] 0.029 | [2] 0.062 | [3] -0.009 | [4] -0.006 | [5] -0.008 | [6] -0.003 | [7] -0.035 | [8] -0.027 | [9] 0.131 | [10] -0.027

EXOSC5 (UniProt Q9NQT4)
inactive: [1] -0.002 | [2] 0.013 | [3] 0.016 | [4] -0.02 | [5] 0.007 | [6] 0.054 | [7] -0.017 | [8] -0.009 | [9] -0.002 | [10] 0.042

ERBIN isoform 8 (UniProt Q96RT1)
inactive: [1] -0.008 | [2] 0.013 | [3] -0.108 | [4] 0.029 | [5] -0.046 | [6] -0.123 | [7] 0.052 | [8] -0.003 | [9] -0.014 | [10] 0.007

FAH (UniProt P16930)
inactive: [1] 0.044 | [2] 0.035 | [3] -0.032 | [4] -0.042 | [5] 0.022 | [6] 0.056 | [7] -0.063 | [8] -0.032 | [9] 0.045 | [10] 0.002

ETFB (UniProt P38117)
inactive: [1] 0.071 | [2] 0.006 | [3] -0.005 | [4] -0.094 | [5] 0.057 | [6] -0.002 | [7] 0.01 | [8] -0.035 | [9] 0.01 | [10] 0.003

ERO1A (UniProt Q96HE7)
inactive: [1] -0.021 | [2] -0.004 | [3] -0.002 | [4] 0.001 | [5] 0.015 | [6] -0.004 | [7] -0.017 | [8] 0.038 | [9] 0.009 | [10] -0.02

F2 (UniProt P00734)
inactive: [1] 0.005 | [2] 0.333 | [3] 0.001 | [4] -0.048 | [5] -0.02 | [6] 0.018 | [7] -0.035 | [8] -0.014 | [9] 0.004 | [10] -0.144

EXOSC2 (UniProt Q13868)
inactive: [1] 0.022 | [2] 0.049 | [3] -0.002 | [4] -0.008 | [5] 0 | [6] 0.07 | [7] -0.028 | [8] -0.011 | [9] 0.014 | [10] 0.06

EPS15 (UniProt P42566)
inactive: [1] -0.023 | [2] -0.039 | [3] 0.042 | [4] 0.024 | [5] -0.081 | [6] -0.183 | [7] 0.006 | [8] 0.008 | [9] -0.038 | [10] -0.153

FAM162A (UniProt Q96A26)
inactive: [1] 0.044 | [2] 0.036 | [3] -0.066 | [4] -0.022 | [5] -0.008 | [6] -0.014 | [7] -0.034 | [8] 0.006 | [9] 0.007 | [10] 0.179

ETFRF1 (UniProt Q6IPR1)
inactive: [1] 0.075 | [2] -0.056 | [3] 0.01 | [4] -0.031 | [5] 0.044 | [6] 0.053 | [7] -0.071 | [8] -0.014 | [9] 0.036 | [10] -0.001

ERI3 (UniProt O43414)
inactive: [1] 0.03 | [2] 0.002 | [3] -0.042 | [4] -0.06 | [5] -0.05 | [6] -0.007 | [7] -0.013 | [8] -0.011 | [9] -0.002 | [10] 0.03
